In US10538443B2, “Method of degradation and inactivation of antibiotics in water by immobilized enzymes onto functionalized supports” (Luxembourg Institute of Science and Technology (LIST), priority 2014, dated 2020):

Tested on: Vibrio fischeri
Conditions: 80 μg·mL^−1
Description: For this, the tests were carried out on the degradation media before (T0) and after metabolization by enzymes immobilized on PGMA and DOPA functionalized Kaldnes after 30 min, 1 h and 24 h of contact.
The tests are performed with the maximum volume of test solution that can be provided and defined by the standards cited earlier. The results are expressed as a percentage of growth inhibition for algae and Daphnia test, as percentage of light emission inhibition for the Microtox test and as percentage of cell viability inhibition for cytotoxicity tests.

SMILES: Cc1cc(NS(=O)(=O)c2ccc(N)cc2)no1 [sulfamethoxazole]
- Percentage of inhibition, Microtox: 11 ± 2%
